Binding data for one substance are collected here from PMC4102803.

Sequences of proteins named here, by UniProt entry; tags and fusion partners are left off.
UniProt Q9UJU6: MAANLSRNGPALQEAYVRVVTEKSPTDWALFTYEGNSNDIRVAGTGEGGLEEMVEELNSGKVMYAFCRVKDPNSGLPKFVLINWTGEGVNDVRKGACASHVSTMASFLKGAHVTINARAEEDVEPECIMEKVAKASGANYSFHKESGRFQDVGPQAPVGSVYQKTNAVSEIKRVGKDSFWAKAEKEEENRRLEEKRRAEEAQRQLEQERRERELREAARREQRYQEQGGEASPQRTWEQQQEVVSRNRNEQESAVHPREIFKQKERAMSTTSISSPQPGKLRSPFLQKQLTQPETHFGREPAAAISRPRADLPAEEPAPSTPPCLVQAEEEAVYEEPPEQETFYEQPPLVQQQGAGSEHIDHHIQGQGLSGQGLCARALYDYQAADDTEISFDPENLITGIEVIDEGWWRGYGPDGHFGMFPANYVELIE

Results are given in words; binding and its absence hold for the method and conditions named. Binding seen in cells or lysates may run through a third protein. Here binding means that the protein was enriched with, or labelled near, the bait; the list need not be complete. Where a sequence is shown, tags or fusion partners need not be part of it.

The target of this assay is T1, GST-14-3-3γ (affinity resin) (UniProt P61981).
T1 sequence: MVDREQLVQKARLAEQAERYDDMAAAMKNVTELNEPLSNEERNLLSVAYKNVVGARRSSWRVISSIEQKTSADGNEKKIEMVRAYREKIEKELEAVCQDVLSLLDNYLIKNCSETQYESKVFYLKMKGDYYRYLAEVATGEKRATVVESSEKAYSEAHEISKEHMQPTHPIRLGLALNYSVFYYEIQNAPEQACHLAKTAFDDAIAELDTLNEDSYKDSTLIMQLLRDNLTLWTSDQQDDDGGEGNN
Kind of assay: affinity purification with mass spectrometry; A549 cell lysates incubated with GST-14-3-3γ affinity resin; washed; bound proteins eluted with the 14-3-3 antagonist peptide R18; eluate analysed by mass spectrometry; only the target purified.

“HIP-55 (HPK1-interacting protein of 55 kDa)/Drebrin-like (DBNL) (from UniProt Q9UJU6 1-430)”: the binding result was “binds”.
